In patent publication US4482548A, “Analgesic pharmaceutical compositions containing 5-phenyl-1,4-benzo diazepine compounds and a method of using same” (Kali-Chemie Pharma GmbH, priority 1982, dated 1984):

Experiment: Acute toxicity on mice
Settings: mouse, in vivo, po

## CN1C(=O)CN=C(c2ccccc2)c2cc(Cl)ccc21 [Diazepam, 7-chloro-1-methyl-5-phenyl-1,3-dihydro-2H-1,4-benzo diazepin-2-one, reference compound]
  LD50: 825 mg/kg
